According to paper PMC4783006:
These are yes or no findings as the source states them, for the method shown. Tags and fused reporters may be left off the sequences shown.

The chains behind the UniProt entries cited, without tags or fusion partners.
UniProt Q9FDX8: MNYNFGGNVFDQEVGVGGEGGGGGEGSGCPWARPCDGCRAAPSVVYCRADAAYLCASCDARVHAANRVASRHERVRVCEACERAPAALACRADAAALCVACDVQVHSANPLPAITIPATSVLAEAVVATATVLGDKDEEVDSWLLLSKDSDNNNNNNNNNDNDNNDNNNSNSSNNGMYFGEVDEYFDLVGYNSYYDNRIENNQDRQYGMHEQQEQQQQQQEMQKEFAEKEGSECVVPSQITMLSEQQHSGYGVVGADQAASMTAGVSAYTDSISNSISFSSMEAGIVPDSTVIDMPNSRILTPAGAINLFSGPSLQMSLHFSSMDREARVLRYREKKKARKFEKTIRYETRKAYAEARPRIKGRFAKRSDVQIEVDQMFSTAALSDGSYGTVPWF

B1: Early heading date 1 (EHD1), yeast hybrid fusion (protein, UniProt Q7Y0W5 1-341)
chain: MDHRELWPYGLRVLVIDDDCSYLSVMEDLLLKCSYKVTTYKNVREAVPFILDNPQIVDLVISDAFFPTEDGLLILQEVTSKFGIPTVIMASSGDTNTVMKYVANGAFDFLLKPVRIEELSNIWQHIFRKQMQDHKNNNMVGNLEKPGHPPSILAMARATPATTRSTATEASLAPLENEVRDDMVNYNGEITDIRDLGKSRLTWTTQLHRQFIAAVNHLGEDKAVPKKILGIMKVKHLTREQVASHLQKYRMQLKKSIPTTSKHGATLSSTALDKTQDHPSRSQYFNQDGCKEIMDYSLPRDDLSSGSECMLEELNDYSSEGFQDFRWDSDKQEYGPCFWNF

Target: T1, OsK4, yeast two-hybrid fusion (rice (Oryza sativa)) (UniProt Q852Q1)
T1 sequence: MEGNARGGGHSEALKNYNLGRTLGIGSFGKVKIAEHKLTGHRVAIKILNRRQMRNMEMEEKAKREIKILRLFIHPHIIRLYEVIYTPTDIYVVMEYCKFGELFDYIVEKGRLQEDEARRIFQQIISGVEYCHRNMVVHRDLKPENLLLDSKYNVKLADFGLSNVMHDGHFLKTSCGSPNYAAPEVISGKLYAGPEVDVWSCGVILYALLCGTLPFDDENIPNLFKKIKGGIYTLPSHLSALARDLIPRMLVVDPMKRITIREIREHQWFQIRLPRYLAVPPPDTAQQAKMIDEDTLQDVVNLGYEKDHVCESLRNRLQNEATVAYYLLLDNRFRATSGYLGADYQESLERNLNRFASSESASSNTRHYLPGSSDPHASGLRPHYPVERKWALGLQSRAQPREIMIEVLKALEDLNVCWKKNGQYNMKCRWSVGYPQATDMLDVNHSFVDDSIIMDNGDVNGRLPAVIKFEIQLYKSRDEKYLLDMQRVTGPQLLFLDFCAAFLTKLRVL
Assay: two-hybrid; direct test; pGADT7 (AD) and pGBKT7 (BD) fusions in S. cerevisiae AH109; spotted on SD lacking leucine, tryptophan, histidine and adenine

Molecule	binding
Heading date 1 (HD1), yeast hybrid fusion (from UniProt Q9FDX8 1-395)	no binding
B1	no binding
